The results in this text go back to PMC11597210, “A Comprehensive Evaluation of a Coumarin Derivative and Its Corresponding Palladium Complex as Potential Therapeutic Agents in the Treatment of Gynecological Cancers: Synthesis, Characterization, and Cytotoxicity” (Pharmaceutics, 2024).

One may read the IC50 as the concentration that gives 50% inhibition.

Type in all cases: cell-based
The subject of assay [1] is A2780 (human ovarian carcinoma cells). Nature of the assay: MTT viability assay, 72 h. As to conditions: A2780, 72 h, mean ± SD. As for the experimental part: (§1) HeLa (human cervical adenocarcinoma cells), A2780 (human ovarian carcinoma cells), MCF7 (human breast adenocarcinoma cells), and HCT116 (human colorectal carcinoma cells) were purchased from American Type Culture Collection (ATCC, Rockville, MD, USA). HeLa, MCF-7, and HCT116 cells were cultivated in HEPES-buffered RPMI-1640, while A2780 cells were cultivated in DMEM. The media were supplemented with 10% heat-inactivated FBS and antibiotics (100 units/mL penicillin and 100 μg/mL streptomycin). The cells were grown at 37 °C in a humidified atmosphere with 5% CO2. For the viability assays, HeLa (3 × 10^3/well), A2780 (8 × 10^3/well), MCF7 (7 × 10^3/well), and HCT116 (6 × 10^3/well) cells were seeded in adherent flat-bottom 96-well plates. For the flow cytometric analyses, HeLa cells were seeded at 8 × 10^4 in 6-well plates.
(§2) The cells were treated with a range of CL, CC, and cisplatin concentrations for 72 h. At the end of the treatment, the cell viability was determined using MTT and crystal violet assays, as previously described. PECs were seeded at a density of 1.8 × 10^5 cells/well in 96-well plates, and two hours later, non-adherent cells were removed by washing the wells with PBS. The remaining adherent cells were treated the same way as the tumor cells. The PEC viability was estimated after 72 h of treatment using the CV assay only.
(Formazan colour is commonly taken as a measure of viable cells.)

Assay [2] deals with HeLa (human cervical adenocarcinoma cells). Nature of the assay: MTT viability assay, 72 h. Particulars: mean ± SD of three experiments. The method, then:
as §1, §2

Assay [3] relates to A2780 (human ovarian carcinoma cells). The experiment in a line: Crystal violet (CV) viability assay, 72 h. Particulars: A2780, 72 h, mean ± SD. As for the experimental part: as §1, §2
Assay [4] relates to HeLa (human cervical adenocarcinoma cells). Nature of the assay: Crystal violet (CV) viability assay, 72 h. As to conditions: rounded IC50 used as treatment dose, assay not stated (matches CV), read-out: IC50 values on HeLa cells as used for flow cytometry treatment. As for the experimental part: as §1, §2
(A flow cytometer gives signals particle by particle.)

`N.N.[Cl][Pt][Cl]` [Cisplatin, cisplatin, reference compound]: the IC50 turned out to be 2.8 ± 0.2 µM in assay [1], 0.5 µM in assay [2], 2.3 ± 0.2 µM in assay [3] and 0.5 µM in assay [4].
